Test results from paper PMC5855688, “BC-Box Motif-Mediated Neuronal Differentiation of Somatic Stem Cells” (International Journal of Molecular Sciences, 2018).
These are yes or no findings as the source states them, for the method shown. Binding seen in cells or lysates may run through a third protein. Some results given as binding are weak or reduced against the parent protein; the word gives no strength.

Amino acid sequences for entries named in this document (tags omitted).
UniProt P83941: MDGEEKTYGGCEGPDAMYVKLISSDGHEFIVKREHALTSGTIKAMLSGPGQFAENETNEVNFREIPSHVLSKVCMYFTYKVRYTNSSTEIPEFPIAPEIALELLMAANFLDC

Molecular target: elongin C (rat (endogenous in SKPs)) (UniProt P83941)
Test: co-IP; RIPA lysates of rat SKPs treated with FITC peptide; immunoprecipitated with anti-elongin C antibody (Protein A Microbeads), blotted with anti-FITC antibody

Row | Binder | binding
1 | YARAAARQARATLKERCLQVVRSLVK [FITC-VHL(157–171)] | binds
2 | YARAAARQARATLKERCLQVVRS [FITC-VHL(157–168)] | binds weakly
